# Assay results published in the supplement of paper PMC12067093, “Discovery and optimisation of a covalent ligand for TRIM25 and its application to targeted protein ubiquitination” (Chemical Science, 2025).
# Chains of the proteins cited; added tags and fusions are not shown. Lines headed by an entry give the natural chain unless they say otherwise; changes in a name come on top.
# UniProt Q9BZQ8: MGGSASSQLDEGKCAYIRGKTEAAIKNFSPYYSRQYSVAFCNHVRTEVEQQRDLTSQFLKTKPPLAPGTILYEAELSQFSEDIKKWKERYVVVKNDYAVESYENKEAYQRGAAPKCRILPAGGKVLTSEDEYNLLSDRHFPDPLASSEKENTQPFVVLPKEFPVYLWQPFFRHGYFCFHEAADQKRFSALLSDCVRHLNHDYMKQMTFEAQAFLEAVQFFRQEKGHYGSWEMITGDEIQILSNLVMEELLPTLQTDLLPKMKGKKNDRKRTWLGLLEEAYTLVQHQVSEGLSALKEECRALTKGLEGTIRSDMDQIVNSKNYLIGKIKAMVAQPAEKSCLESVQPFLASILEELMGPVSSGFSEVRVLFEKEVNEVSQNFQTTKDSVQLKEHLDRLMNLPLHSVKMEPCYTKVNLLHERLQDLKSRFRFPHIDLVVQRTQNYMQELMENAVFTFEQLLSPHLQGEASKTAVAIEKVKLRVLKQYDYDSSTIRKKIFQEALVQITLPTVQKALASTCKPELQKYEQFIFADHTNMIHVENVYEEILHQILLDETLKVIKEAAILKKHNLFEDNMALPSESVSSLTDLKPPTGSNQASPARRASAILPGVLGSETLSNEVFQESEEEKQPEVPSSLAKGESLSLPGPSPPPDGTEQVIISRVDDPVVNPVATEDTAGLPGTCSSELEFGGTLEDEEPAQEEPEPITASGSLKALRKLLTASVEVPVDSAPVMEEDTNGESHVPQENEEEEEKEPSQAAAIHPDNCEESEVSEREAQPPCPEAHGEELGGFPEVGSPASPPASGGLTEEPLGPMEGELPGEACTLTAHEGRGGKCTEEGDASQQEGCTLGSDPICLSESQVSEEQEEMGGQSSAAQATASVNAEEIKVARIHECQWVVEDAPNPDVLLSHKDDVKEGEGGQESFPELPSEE
# UniProt P55899: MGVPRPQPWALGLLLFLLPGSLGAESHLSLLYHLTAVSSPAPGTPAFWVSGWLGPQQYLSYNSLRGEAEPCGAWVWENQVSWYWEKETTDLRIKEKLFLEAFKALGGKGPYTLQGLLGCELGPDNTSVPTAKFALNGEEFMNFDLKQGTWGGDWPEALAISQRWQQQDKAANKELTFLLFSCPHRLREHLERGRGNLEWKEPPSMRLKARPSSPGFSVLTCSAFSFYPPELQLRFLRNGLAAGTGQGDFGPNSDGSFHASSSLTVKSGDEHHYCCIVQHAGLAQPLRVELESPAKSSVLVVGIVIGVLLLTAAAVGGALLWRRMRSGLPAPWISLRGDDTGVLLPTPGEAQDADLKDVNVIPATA
# UniProt Q8N531: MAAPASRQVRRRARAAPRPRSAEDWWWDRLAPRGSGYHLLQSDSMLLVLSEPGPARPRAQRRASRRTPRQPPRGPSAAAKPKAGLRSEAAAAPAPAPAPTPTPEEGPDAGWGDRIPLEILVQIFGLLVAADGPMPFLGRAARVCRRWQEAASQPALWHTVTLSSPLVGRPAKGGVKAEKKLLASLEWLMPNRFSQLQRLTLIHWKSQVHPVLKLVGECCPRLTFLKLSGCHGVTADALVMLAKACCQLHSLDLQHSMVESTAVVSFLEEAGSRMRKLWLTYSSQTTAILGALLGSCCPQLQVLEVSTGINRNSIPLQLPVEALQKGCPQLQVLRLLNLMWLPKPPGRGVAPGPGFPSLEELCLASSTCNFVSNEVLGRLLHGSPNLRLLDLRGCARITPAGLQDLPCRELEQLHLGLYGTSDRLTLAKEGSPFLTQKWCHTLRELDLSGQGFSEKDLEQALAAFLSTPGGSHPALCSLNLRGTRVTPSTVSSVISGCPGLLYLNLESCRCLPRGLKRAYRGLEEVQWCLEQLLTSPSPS
# UniProt Q53R41: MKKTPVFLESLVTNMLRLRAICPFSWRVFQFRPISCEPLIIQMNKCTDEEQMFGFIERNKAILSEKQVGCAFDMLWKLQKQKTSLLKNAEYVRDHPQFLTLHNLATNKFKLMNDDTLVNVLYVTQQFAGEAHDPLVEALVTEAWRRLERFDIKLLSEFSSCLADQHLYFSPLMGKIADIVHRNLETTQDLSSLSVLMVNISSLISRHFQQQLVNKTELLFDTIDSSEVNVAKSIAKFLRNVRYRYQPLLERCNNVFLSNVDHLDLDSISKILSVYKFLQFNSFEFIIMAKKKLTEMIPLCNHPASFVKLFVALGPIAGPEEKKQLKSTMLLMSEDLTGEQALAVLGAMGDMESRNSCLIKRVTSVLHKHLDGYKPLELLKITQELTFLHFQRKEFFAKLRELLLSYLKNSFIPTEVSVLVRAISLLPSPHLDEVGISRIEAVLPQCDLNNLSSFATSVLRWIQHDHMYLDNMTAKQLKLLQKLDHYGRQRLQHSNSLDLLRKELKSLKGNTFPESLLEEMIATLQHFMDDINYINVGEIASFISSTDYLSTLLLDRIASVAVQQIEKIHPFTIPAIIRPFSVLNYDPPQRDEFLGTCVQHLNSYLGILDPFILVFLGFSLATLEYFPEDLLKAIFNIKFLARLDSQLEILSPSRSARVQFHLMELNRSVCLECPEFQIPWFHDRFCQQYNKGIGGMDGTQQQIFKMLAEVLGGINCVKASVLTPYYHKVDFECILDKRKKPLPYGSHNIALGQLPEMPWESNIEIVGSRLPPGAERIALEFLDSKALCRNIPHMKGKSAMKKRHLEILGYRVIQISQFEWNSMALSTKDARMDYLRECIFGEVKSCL
# UniProt Q86UX7, whole entry, looked up: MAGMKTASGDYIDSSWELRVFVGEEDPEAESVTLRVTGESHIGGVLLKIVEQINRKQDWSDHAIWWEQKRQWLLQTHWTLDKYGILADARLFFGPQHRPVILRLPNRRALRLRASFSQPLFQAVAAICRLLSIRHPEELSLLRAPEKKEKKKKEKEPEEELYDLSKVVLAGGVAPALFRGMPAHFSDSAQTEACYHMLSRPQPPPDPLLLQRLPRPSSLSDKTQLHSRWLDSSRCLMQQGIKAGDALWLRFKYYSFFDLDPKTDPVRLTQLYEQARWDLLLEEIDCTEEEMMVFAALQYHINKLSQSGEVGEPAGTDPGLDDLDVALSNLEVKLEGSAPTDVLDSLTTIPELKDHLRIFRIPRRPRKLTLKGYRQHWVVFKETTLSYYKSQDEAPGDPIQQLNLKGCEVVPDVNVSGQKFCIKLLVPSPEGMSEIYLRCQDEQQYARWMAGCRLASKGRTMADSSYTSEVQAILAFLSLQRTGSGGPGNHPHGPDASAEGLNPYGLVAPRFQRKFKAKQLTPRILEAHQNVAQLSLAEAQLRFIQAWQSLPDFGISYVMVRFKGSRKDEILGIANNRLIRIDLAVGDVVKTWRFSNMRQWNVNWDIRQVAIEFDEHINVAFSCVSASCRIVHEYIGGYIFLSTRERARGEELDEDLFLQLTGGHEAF
# UniProt Q9NYY8: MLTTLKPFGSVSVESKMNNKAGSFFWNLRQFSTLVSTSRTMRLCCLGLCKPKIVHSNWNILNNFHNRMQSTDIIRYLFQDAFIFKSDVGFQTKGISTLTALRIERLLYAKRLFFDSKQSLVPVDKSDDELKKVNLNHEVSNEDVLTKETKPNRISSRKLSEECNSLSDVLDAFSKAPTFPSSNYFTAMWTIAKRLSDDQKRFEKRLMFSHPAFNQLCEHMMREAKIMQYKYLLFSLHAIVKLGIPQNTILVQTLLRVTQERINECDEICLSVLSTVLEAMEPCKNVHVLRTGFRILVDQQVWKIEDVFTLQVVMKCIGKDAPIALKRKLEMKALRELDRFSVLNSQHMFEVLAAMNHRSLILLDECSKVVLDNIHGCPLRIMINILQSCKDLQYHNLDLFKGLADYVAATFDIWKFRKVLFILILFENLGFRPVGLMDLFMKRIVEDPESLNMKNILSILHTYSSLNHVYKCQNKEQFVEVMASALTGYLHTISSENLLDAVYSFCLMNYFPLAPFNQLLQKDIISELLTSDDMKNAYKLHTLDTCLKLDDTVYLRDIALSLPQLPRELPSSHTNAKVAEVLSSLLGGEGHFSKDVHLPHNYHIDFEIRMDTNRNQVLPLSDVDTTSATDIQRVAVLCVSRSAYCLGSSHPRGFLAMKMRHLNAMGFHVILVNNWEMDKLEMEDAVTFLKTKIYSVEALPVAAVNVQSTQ
# UniProt Q9NVI1: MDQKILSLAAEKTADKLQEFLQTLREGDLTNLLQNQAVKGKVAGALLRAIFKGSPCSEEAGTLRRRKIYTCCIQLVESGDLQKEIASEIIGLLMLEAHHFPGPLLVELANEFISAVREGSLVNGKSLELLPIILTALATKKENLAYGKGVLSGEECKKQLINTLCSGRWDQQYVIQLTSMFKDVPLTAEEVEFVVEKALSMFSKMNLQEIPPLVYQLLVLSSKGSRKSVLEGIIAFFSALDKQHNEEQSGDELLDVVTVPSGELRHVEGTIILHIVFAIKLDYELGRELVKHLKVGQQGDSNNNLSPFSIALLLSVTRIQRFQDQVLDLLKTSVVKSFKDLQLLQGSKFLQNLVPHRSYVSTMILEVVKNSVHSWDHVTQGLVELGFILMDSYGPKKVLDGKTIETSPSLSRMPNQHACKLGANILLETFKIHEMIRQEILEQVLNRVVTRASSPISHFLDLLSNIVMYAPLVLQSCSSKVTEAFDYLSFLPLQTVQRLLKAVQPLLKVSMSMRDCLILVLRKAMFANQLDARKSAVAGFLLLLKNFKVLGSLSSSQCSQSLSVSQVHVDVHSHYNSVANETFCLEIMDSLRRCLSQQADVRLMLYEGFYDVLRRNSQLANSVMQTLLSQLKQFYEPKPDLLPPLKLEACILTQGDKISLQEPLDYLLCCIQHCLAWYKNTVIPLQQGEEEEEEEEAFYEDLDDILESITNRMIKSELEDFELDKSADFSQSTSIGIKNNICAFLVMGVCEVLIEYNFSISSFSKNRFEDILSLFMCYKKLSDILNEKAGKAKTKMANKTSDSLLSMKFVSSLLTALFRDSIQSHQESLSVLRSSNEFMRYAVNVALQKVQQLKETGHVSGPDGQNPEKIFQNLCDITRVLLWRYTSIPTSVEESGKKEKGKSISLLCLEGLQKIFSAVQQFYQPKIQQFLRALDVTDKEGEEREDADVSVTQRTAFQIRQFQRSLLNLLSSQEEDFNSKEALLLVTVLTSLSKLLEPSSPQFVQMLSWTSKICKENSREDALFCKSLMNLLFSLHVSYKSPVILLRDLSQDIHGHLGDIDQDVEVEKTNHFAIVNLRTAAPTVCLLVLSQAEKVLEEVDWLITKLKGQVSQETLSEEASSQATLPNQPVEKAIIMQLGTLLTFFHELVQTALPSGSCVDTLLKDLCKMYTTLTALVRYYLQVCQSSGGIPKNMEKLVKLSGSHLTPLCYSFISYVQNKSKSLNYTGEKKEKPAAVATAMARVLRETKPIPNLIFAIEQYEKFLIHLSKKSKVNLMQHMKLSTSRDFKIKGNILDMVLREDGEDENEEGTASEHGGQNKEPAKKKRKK
# UniProt Q8TB52: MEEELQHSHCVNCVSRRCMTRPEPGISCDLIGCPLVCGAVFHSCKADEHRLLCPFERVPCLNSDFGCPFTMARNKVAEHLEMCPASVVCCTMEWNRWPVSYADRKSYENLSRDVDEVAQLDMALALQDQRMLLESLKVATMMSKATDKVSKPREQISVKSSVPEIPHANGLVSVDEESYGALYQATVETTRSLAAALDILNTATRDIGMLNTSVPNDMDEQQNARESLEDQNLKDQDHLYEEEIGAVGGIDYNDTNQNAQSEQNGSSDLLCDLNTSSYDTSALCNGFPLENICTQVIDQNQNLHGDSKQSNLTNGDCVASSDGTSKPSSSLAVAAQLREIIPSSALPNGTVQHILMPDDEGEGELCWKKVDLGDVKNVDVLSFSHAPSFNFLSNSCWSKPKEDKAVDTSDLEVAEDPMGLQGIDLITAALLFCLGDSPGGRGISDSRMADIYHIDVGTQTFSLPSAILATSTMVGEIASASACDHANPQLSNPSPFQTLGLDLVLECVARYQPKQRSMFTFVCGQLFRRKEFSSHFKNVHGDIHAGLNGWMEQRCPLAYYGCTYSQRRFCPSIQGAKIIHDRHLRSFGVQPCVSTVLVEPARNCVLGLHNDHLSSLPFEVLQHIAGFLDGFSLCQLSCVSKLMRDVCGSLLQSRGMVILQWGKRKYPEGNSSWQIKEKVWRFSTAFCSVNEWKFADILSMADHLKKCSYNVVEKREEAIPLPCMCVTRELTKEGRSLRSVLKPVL
# UniProt Q9NW38: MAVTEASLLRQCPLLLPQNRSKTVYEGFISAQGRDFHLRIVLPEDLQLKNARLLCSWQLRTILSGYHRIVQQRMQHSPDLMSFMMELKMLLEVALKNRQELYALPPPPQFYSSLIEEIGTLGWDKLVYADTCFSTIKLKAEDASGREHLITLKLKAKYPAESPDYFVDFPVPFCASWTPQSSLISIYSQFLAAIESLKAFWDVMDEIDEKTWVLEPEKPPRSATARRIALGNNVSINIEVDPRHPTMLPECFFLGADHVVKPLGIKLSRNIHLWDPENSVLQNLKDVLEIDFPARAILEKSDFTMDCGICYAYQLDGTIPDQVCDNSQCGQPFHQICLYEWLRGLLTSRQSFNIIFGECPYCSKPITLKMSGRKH
# The other results are listed elsewhere or left out.
# Compound: CC1Cc2ccccc2N1C(=O)C1CCCN(C1)C(=O)CCl (mixture of isomers) [TRIM25 ligand 11 (diastereomer mixture)]
# Assay: probe-labelled cysteine peptide fold change vs DMSO (competition) (log2 fold change); higher = less target engagement (more negative = stronger competition)
# Conditions: 10 µM; THP-1; incubation time: 4 h
# 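Also: competitive chemoproteomic profiling in live THP-1 cells with an iodoacetamide desthiobiotin (IA-DTB) probe, comparing probe-labelled peptide intensities in compound-treated cells against DMSO-treated controls.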
row,Target,probe-labelled cysteine peptide fold change
1,FAM129A_Q9BZQ8_891_IHECQWVVEDAPNPDVLLSHK (UniProt Q9BZQ8),0.0168
2,FCGRT_P55899_275_SGDEHHYCCIVQHAGLAQPLR (UniProt P55899),-0.0334
3,FAM129A_Q9BZQ8_194_RFSALLSDCVR (UniProt Q9BZQ8),-0.125
4,FEM1A_Q9BSK4_124_AACFDGHLEVVR (UniProt Q9BSK4),0.0873
5,FBXL6_Q8N531_439_WCHTLR (UniProt Q8N531),-0.0599
6,FASTKD1_Q53R41_46_CTDEEQMFGFIER (UniProt Q53R41),-0.037
7,FARSB_Q9NSD9_548_CAEIFAR (UniProt Q9NSD9),5.21e-05
8,FERMT3_Q86UX7_439_CQDEQQYAR (UniProt Q86UX7),0.232
9,FAM208B_Q5VWN6_186_VIPILSTLNCALLETK (UniProt Q5VWN6),0.18
10,FASN_P49327_1558_HAQPTCPGAQLCTVYYASLNFRDIMLATGK (UniProt P49327),-0.313
11,FBN2_P35556_1012_WDEDECIHPVPGK (UniProt P35556),0.164
12,FASTKD2_Q9NYY8_645_SAYCLGSSHPR (UniProt Q9NYY8),0.348
13,FERMT3_Q86UX7_407_GCEVVPDVNVSGQK (UniProt Q86UX7),-0.0427
14,FASN_P49327_2024_EACPELDYFVVFSSVSCGR (UniProt P49327),-0.175
15,FCHSD2_O94868_304_DYNLQLFLQENAVFHKPQPFQFQPCDSDTSR (UniProt O94868),-0.119
16,FASTKD5_Q7L8L6_708_NQYCYGSR (UniProt Q7L8L6),0.00998
17,FAM192A_Q9GZU8_187_NQEPSSCK (UniProt Q9GZU8),-0.0643
18,FANCD2_Q9BXW9_893_NSECDPTPSHR (UniProt Q9BXW9),0.0136
19,FCGRT_P55899_221_ARPSSPGFSVLTCSAFSFYPPELQLR (UniProt P55899),-0.148
20,FANCI_Q9NVI1_1085_TAAPTVCLLVLSQAEK (UniProt Q9NVI1),0.0413

row,Target,probe-labelled cysteine peptide fold change
1,FDX1_P10109_155_LGCQICLTK (UniProt P10109),-0.126
2,FASTKD1_Q53R41_446_IEAVLPQCDLNNLSSFATSVLR (UniProt Q53R41),0.105
3,FAR2_Q96K12_104+111_EDMQELLSCTNIIFHCAATVR (UniProt Q96K12),0.0855
4,FBXO30_Q8TB52_10_MEEELQHSHCVNCVSR (UniProt Q8TB52),-0.0797
5,FASN_P49327_2273_LSIPTYGLQCTR (UniProt P49327),-0.0274
6,FANCG_O15287_503_EQGAAFNCEQGCK (UniProt O15287),0.258
7,FBXO38_Q6PIJ6_303_NLHTIVLGACK (UniProt Q6PIJ6),-0.0863
8,FAM185A_Q8N0U4_284_MGNITVDSSSGCLK (UniProt Q8N0U4),0.131
9,FBXO30_Q8TB52_90_VAEHLEMCPASVVCCTMEWNR (UniProt Q8TB52),-0.194
10,FASN_P49327_2369_AKLTPGCEAEAETEAICFFVQQFTDMEHNR (UniProt P49327),-0.0758
11,FECH_P22830_196_AIAFTQYPQYSCSTTGSSLNAIYR (UniProt P22830),0.177
12,FGB_P02675_437_CHAANPNGR (UniProt P02675),0.506
13,FEN1_P39748_182_VYAAATEDMDCLTFGSPVLMR (UniProt P39748),-0.0914
14,FANCL_Q9NW38_251_HPTMLPECFFLGADHVVKPLGIK (UniProt Q9NW38),-0.113
15,FANCI_Q9NVI1_156_GVLSGEECK (UniProt Q9NVI1),0.141
16,FASN_P49327_1828_CTVFHGAQVEDAFR (UniProt P49327),0.0828
17,FAM193B_Q96PV7_766_VGSCAEAGEGSR (UniProt Q96PV7),0.0331
18,FASTKD2_Q9NYY8_546_LHTLDTCLK (UniProt Q9NYY8),0.142
19,FBL_P22087_99_HEGVFICR (UniProt P22087),0.0275
